Experimental data: PubChem BioAssay AID1347423 (Functional Genomics Laboratory (NCATS/FGL), 2020)
The whole screen tested about 52,000 sequences, of which about 210 (0.4%) were called active.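 Rule for the calls: active = gene whose silencing raises cell survival under the drug, median off-target-corrected z-score across its silencing RNAs 2 or more; inactive = the rest.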 The list shows a part of the results.

Test: Resistance to Poly (ADP-Ribose) Polymerase inhibitor: Gene Identification via Genome-wide siRNA Screen
Conditions: mouse BRCA2 R2336H ES cells, olaparib, CellTiter-Glo viability; active compounds read high
Method in brief: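 Mouse BRCA2 R2336H ES cells were reverse-transfected with siRNA (20 nM final), treated at 48 h with 500 nM olaparib, and read by CellTiter-Glo after 72 h. Scores: MAD-based z per siRNA, median per gene, seed off-target correction.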

Sequence | z-score
GGGUGGUUGGAAAUGAUACTT against Kdr | inactive: -0.805
GGUGACUUCAUUUAGUUUGTT against Zfp352 | inactive: -0.00648
CCGAGUUUGUGUCACCACUTT against Krtcap2 | inactive: -0.616
GGGCUGUGAGCUCUGUUCATT against Rspondin | inactive: -1.34
UCAGAAUUCGAAAACUGGATT against Olfr1297 | inactive: 0.13
GGAUAAUGGGAUGAGUCCUTT against Kcnq1 | inactive: 0.317
GGCCCAGAAAUGAUAUGGATT against Etd | inactive: 1.65
GCCAGAAUCUGUUGUGAACTT against Gfpt1 | inactive: 2.1
GGAGAAACGAAACAAGAGUTT against Fkbp11 | inactive: 2.35
GGUCUUUACAGUCCUCUACTT against Olfr71 | inactive: 1.17
GGUCUUUGUAUUUGAUGUUTT against Ctbs | inactive: -0.513
GGAGAGAAUGGACCAUCUCTT against Rnase10 | inactive: -0.163
GGUCAAAGAAGGAAAACACTT against Foxn1 | inactive: -0.92
CCCAGGACCAUUGUUUGCATT against Olfr745 | inactive: -0.185
GGUUCAUCGUUUCAAGUUUTT against 4932415G16Rik | inactive: 0.789
CCGUAACCCAGAAAAUGUATT against BC014699 | inactive: 0.824
GGAAUGCUUAAAGCUUUAATT against Clasp2 | inactive: -2.3
GGACAGCAGUAAAUAUACUTT against Coq3 | inactive: -0.0464
GGGCAUAUUCACGAUCAAUTT against Fut2 | inactive: -2.04
GGUUUAUUUGAUGUCCACATT against Rab2b | inactive: 1.43
GGGCUUGAAGGAAUUGACUTT against Cyp4f14 | inactive: -0.255
GGAAACCUAUUGUAUACAATT against 9230117N10Rik | inactive: 1.52
GGGCCGUUUCCUGAAGAUCTT against Pura | inactive: 0.568
GGUGUGGGUUUAACUAUCUTT against Olfr686 | inactive: 0.459
GGAACCACUUUAUUUGUCATT against Dcamkl1 | inactive: 1.06
GGAAGAUUCUAGAAAUGUGTT against BC057371 | inactive: -0.524
CGUAAAGGAACACUCUCGGTT against Eif3s2 | inactive: -2.56

Quoted from the listing:
Entry of CCGUAACCCAGAAAAUGUATT against BC014699 under z-score: inactive: 0.824
Entry of GGAGAGAAUGGACCAUCUCTT against Rnase10 under z-score: inactive: -0.163
Entry of GGAUAAUGGGAUGAGUCCUTT against Kcnq1 under z-score: inactive: 0.317

Next records follow.

Sequence | z-score
GGGUUACCGGAAUGUUAUCTT against Tgm2 | inactive: 1.35
GCCAGUAACGACAAAGACATT against Per3 | inactive: -1.33
GGAGACUGGAGAGCAAAAUTT against Krt1-18 | inactive: -0.338
GCACUGAUUACGCUAAUUUTT against Scap2 | inactive: 2.58
GGCCAGAAGAUCUUCACCATT against Furin | inactive: 0.509
GGGCUAGACGAGAAUACUGTT against Bhmt2 | inactive: -2.49
GGAUAGAGACUGCUGGGUUTT against 1110003A17Rik | inactive: -1.2
GGGCUGAUCUUUUUAACUGTT against Tpm3 | inactive: 0.317
GGAAAGCAUCGAGGAAGACTT against Rbm28 | inactive: 0.248
GGAUUCAGUGGAAAUCUUUTT against Gja12 | inactive: 0.0872
GCUAUCCGUGCUAGAUAUGTT against Elp3 | inactive: 0.554
GGAGUUGAGAUCAUGUAGGTT against 1600013P15Rik | inactive: 2.45
GGAUAUGAGCGGUAUUUUGTT against Trim34 | inactive: 0.941
GGAGAUGCGAGUACAACUGTT against A330104H05Rik | inactive: -0.0746
GGUUUUACAAAUGAACUUGTT against Cacna2d1 | inactive: -0.104
CCUAAGACAUGCAACAUGATT against Adam25 | inactive: 0.637
UUUGGUAUGGCUCUACUAUTT against Olfr523 | inactive: 0.192
GGAGACACGACUUUAAAAATT against Slco1c1 | inactive: 1.22
GGACUGAAGAUCAUAUUCATT against Csh2 | inactive: 0.521
GGAAUAAAGAAUGGUAUACTT against Suhw4 | inactive: 0.381
CGGCAUCUGUAAGAACGUGTT against Adamts7 | inactive: 0.996
GCCACGUAGACUGAUAUAGTT against Irf5 | inactive: -2.64
GGCAAAGGUGCAAGAUACATT against 9130012B15Rik | inactive: 0.304
GGACUCCCUGAGAACCUGATT against Coil | inactive: -1.31
CGGCCUCAAUUUACAGCUATT against 9130210N20Rik | inactive: -1.16
GGAAAGACUUGAUGGUCUGTT against Nap1l1 | inactive: -1.15
CGGUUCUUCCAUCAAAUGGTT against Prodh | inactive: -0.0133

Sequence | z-score
GCAUCCCUUUGAUCGCUACTT against Serpina11 | inactive: 0.247
GGUGGACUCCUUGACAGAUTT against AI507495 | inactive: -0.927
CCGAAAGAAAUGGACCCGATT against Pou2f2 | inactive: -0.0968
GGUCUGCAUCGACUCUGAGTT against Atox1 | inactive: -1.1
GCUAGACCUAAGGAGCAAATT against Axin1 | inactive: 0.057
GGUUCUGAACCAGCUGGAGTT against Chd3 | inactive: 2.62
CGAAAUCUUUUCUAACCACTT against Drd4 | inactive: 0.928
GCCAAGAGUCAACAUCACATT against Eng | inactive: 0.131
GCUUUGGACAAUAAGAAGUTT against Cdkl1 | inactive: -0.441
CGAGACAAGGUAGAAAGUATT against Spire1 | inactive: -1.46
CGCCAAACAGGCUAGAUCUTT against Ephb2 | inactive: 2.91
GCAUACCAGUCUCAUCGCATT against Kpnb3 | inactive: -0.78
GCCAUGUUCCUUUAUAACATT against Prps1 | inactive: 1.24
GGAUGUGCUAUCGAAGACATT against RP23-219P13.3 | inactive: 0.00481
CCAAGAAGAUCUGUACACGTT against 2610528J18Rik | inactive: 0.966
GGAGGAGUCUUGAAUCCAGTT against 9930028C20Rik | inactive: 1.77
GGAUUCAGGCAGAAGAAAGTT against 3110002L15Rik | inactive: -1.14
GGAUACGAUGGAAAUAAUGTT against Nek6 | inactive: -1.03
GGAAAAUGGAGCUGUGCUCTT against BC019561 | inactive: -1.61
GGUCAUAGCACCAUGUUCUTT against Gata5 | inactive: 0.584
GGAGAAACCUGACAUGUCUTT against AA407526 | inactive: -2.1
GGGUUCAGGAGAACUAACUTT against 9030407H20Rik | inactive: -1.28
GGUAAAAGUGGUUCUGUUCTT against Olfr1143 | inactive: 0.274
ACAGCUCUUCCAACCACCUTT against Rtn4rl2 | inactive: -0.536
GGUGAAAUCCGUUACUUUGTT against Muted | inactive: -0.538
GGGUUAGGUCAUCUAAAUGTT against Ankrd32 | inactive: -0.368
GGAGGACAAAGAGGCACAGTT against Gip | inactive: 0.802

Sequence | z-score
GCGGGAAUGAAGAAACACGTT against Eea1 | inactive: -0.557
CCAGAUACUCAAUUCUUUGTT against Bcl3 | inactive: -0.698
GGGAGUUACUAACCACUUCTT against Gja3 | inactive: -0.507
GCUGAACGACCAAGUGUAATT against Lrrc15 | inactive: -1.15
GGGCUUUGAUCAGUUCUACTT against Hoxd11 | inactive: -0.654
GGGAUGCUGUCUUCUGUCATT against G630042G04 | inactive: -1.26
GGUGGUAUUUGAAGAGACATT against Ddit4l | inactive: 1.44
GCAAGUCGAUACUGGGUGATT against T2 | inactive: -0.681
GGCCUUCUCUGACUUUCUGTT against D430030K24Rik | active: 3.28
GCCUUCUGUUGGUUAAUACTT against Dsipi | inactive: -0.0459
CCGCUCACGUGAAAAAGUUTT against 2610024N01Rik | inactive: -0.456
GGAAAUCUAAAAGUCCUCCTT against Il17re | inactive: -0.56
GGAUACAGAACACAGGAGCTT against A430090L17Rik | inactive: 3.75
GGUCAAAGCAUCAAGGUGGTT against Oprl1 | inactive: -0.0981
GGAACAUUACCAUCAAGCUTT against Eif2s3x | inactive: -2.52
GCAUGGAUAUCCUAUUGACTT against Fmo5 | inactive: 1.06
GGCAGAUUUAGACACCAUATT against Synpr | inactive: 1.12
GGGUCACCCAUUAUUUUAUTT against Phyhip | inactive: 0.649
GGAAAUCGUAUACAGGGACTT against Prkx | inactive: 0.355
CCAAAUUAUUCUUGCUUUCTT against 1500003O03Rik | inactive: 0.953
CCUGAGUAUGCCUAUUAUUTT against Snapc1 | inactive: -0.0116
GGCAAUGGACGCAUCACCUTT against Fn1 | inactive: -0.759
GCCAAUAAGCGGAAAAGCATT against Zfp609 | inactive: -2.02
GCGCAGGUUCAAUGUGGAUTT against Prodh | inactive: 0.399

Some of the entries so far, as a markdown table:

| Sequence | z-score |
| --- | --- |
| GGUCAAAGCAUCAAGGUGGTT against Oprl1 | inactive: -0.0981 |
| GGAACAUUACCAUCAAGCUTT against Eif2s3x | inactive: -2.52 |
